From PubChem BioAssay record AID1159506 (NCATS, 2015).

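Genome-wide siRNA knockdown in TC32 Ewing sarcoma cells, comparing luciferase light from an NR0B1-promoter reporter with a CMV-promoter reporter 48 hours after transfection.
Each siRNA was applied at 20 nM.
A z-score of the log NR0B1-over-CMV signal, less the median of siRNAs with the same seed; more negative means a stronger specific loss of the NR0B1 reporter.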

The strongest results of the screen are mostly left out here.
Sequences are the guide (antisense) strand, without overhang.

Sequence: UAAGUAACUAUCCCAGAGG
target gene: LOC653698
seed-corrected z-score: 0.7316

Sequence: UCAGCUUCCAUGGUCAUGU
target gene: HIPK4
seed-corrected z-score: -0.9444

Sequence: UCGGUUCCAAAAUUCUCCC
target gene: KLHL5
seed-corrected z-score: -0.1198

Sequence: UAUGUGAUGCGACCACUGC
target gene: PITPNM3
seed-corrected z-score: 0.492

Sequence: UAAAGGACAUUAUUACACC
target gene: SNRPF
seed-corrected z-score: -1.069

Sequence: UUUCUCUCUAUCUUCCUGU
target gene: TCP10
seed-corrected z-score: 1.327

Sequence: UCAUGGUCAAGGAAAGUCU
target gene: MED18
seed-corrected z-score: -0.9811

Sequence: UAAUGUAUGAAGUAUUUCA
target gene: MORF4L1
seed-corrected z-score: 0.04663

Sequence: AAGGCCUUAUCUUUAGUCC
target gene: UBLCP1
seed-corrected z-score: 0.5296

Sequence: UCAGGGAUGACUUUACACC
target gene: PHF24
seed-corrected z-score: 0.1036

Sequence: UCCAUCUUCUCGGUGAUUC
target gene: RORA
seed-corrected z-score: 0.8792

Sequence: UACCAAGCAGGAUAAUACC
target gene: XPO7
seed-corrected z-score: 0.9051

Sequence: UGCAUCAAAACAGUAGGUC
target gene: ABHD17B
seed-corrected z-score: 0.5672

Sequence: UAAAGGUCUUCUCUAUAGC
target gene: WDR89
seed-corrected z-score: 2.346

Sequence: UUAUCGUAAGUAGAUGUGC
target gene: FAM83B
seed-corrected z-score: 0.8205

Sequence: UUAUCUCCCACUACGUCUC
target gene: TTC37
seed-corrected z-score: 1.205

Sequence: UUUCCCUUCAGCGAGGGCU
target gene: PLEKHN1
seed-corrected z-score: -0.8117

Sequence: UAAACGGCUGGUAUUACUG
target gene: PHIP
seed-corrected z-score: -0.4186

Sequence: UUCCUGGUAAAAGGGAGAG
target gene: ASB6
seed-corrected z-score: -0.7948

Sequence: UCACUAGUCGCUGUUUCUC
target gene: GOLPH3L
seed-corrected z-score: 0.01613

Sequence: AAGUUCAUUAUCAAGAGGC
target gene: FBXL21
seed-corrected z-score: -0.4676

Sequence: AAAGGCUCCCGUUUGCUUC
target gene: WRAP53
seed-corrected z-score: 0.3029

Sequence: UUGGGCAUCAAGUAUGUCU
target gene: NCF1
seed-corrected z-score: 0.1447

Sequence: UCAAUGAACACCACCUUGG
target gene: NFATC4
seed-corrected z-score: 0.7404

Sequence: UGCAGAGUAAUGCCAUCAC
target gene: UBB
seed-corrected z-score: 0.7503

Sequence: UAUCCAUAGAAAGUAAACC
target gene: SERP2
seed-corrected z-score: 0.4202

Sequence: UUGAUGGAUUUGAACAUUC
target gene: C5orf51
seed-corrected z-score: 0.7635

Sequence: UCAUGAUGUAGCGAUAGCG
target gene: TRPM6
seed-corrected z-score: 0.1907

Sequence: UUCAGGACUUUUUACACUG
target gene: C9orf43
seed-corrected z-score: 0.2535

Sequence: AAAGGUUCUUCCAAUAAGC
target gene: ZNF330
seed-corrected z-score: -0.249

Sequence: UGGUUAACAAAUUCUGAGG
target gene: CREBRF
seed-corrected z-score: -0.4914

Sequence: AAAUGGAUCAAAUCCACCA
target gene: NKAIN4
seed-corrected z-score: 0.7487

Sequence: AAGAGAUACAAAUUCGUUC
target gene: STAU1
seed-corrected z-score: -0.1818

Sequence: UCAGUUUCCGCAACAUUCU
target gene: MGARP
seed-corrected z-score: -0.1864

Sequence: UUCGGUAAAUUGCUUCAGC
target gene: WDSUB1
seed-corrected z-score: -0.05126

Sequence: UGUACCUGAUUUUAUUUCC
target gene: RPL39
seed-corrected z-score: 1.283

Sequence: UUCCUCGCUGUGCAAAACC
target gene: B3GALT4
seed-corrected z-score: -0.1435

Sequence: UAUCUGACAUGGGUCUUAC
target gene: KIF21A
seed-corrected z-score: -0.399

Sequence: UACCGUGCUGUACAGGUGG
target gene: TGFB1I1
seed-corrected z-score: -0.7129

Sequence: AAUGCGUUCUCUCCGCUCC
target gene: TRIM17
seed-corrected z-score: -0.5558

Sequence: UUGGGUACAAUGAUGAAGG
target gene: OR10K2
seed-corrected z-score: -0.2697

Sequence: UUUGGGCUCGGAAGUCUUC
target gene: VASH1
seed-corrected z-score: 0.2022

Sequence: UCUGGUGCAAGGAUAGGUC
target gene: ECT2
seed-corrected z-score: -0.1439

Sequence: UAGGAUCACAUCAAUGUCC
target gene: ALPPL2
seed-corrected z-score: 0.2591

Sequence: UCAGUUUCUACUGUCCUAC
target gene: ZNF81
seed-corrected z-score: -0.02269

Sequence: AUAGAUGUCGUCACAGUCC
target gene: MFAP4
seed-corrected z-score: 0.6089

Sequence: CUGCAUGAAAGUUGGCUGG
target gene: LINC00264
seed-corrected z-score: 0.9353

The last 5 entries again:

{"sequence": "UCUGGUGCAAGGAUAGGUC", "target gene": "ECT2", "seed-corrected z-score": "-0.1439"}
{"sequence": "UAGGAUCACAUCAAUGUCC", "target gene": "ALPPL2", "seed-corrected z-score": "0.2591"}
{"sequence": "UCAGUUUCUACUGUCCUAC", "target gene": "ZNF81", "seed-corrected z-score": "-0.02269"}
{"sequence": "AUAGAUGUCGUCACAGUCC", "target gene": "MFAP4", "seed-corrected z-score": "0.6089"}
{"sequence": "CUGCAUGAAAGUUGGCUGG", "target gene": "LINC00264", "seed-corrected z-score": "0.9353"}